# Results published in the supplement of paper PMC4604168 (melanoma cell lines).
# The other results are listed elsewhere or left out. Many values rest on one well or one pass, so single values are uncertain.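 Cells were imaged in 1,536-well plates, and nuclei stained with an antibody against cleaved PARP were counted against all DNA-stained nuclei to give the apoptosis fraction. Screening doses were chosen to leave most cells alive, and resting and induced cleaved-PARP levels differ strongly between cell lines.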
# Test system: G361
# Assay: cleaved PARP positive nuclei fraction relative to DMSO control; melanoma cells; higher = more apoptosis
# Details: library dose: low library concentration; 72 h
row,Compound,cleaved PARP positive nuclei fraction
1,"COc1ccc(C2=N[C@@H](c3ccc(Cl)cc3)[C@@H](c3ccc(Cl)cc3)N2C(=O)N2CCNC(=O)C2)c(OC(C)C)c1 [Nutlin-3] + CC1(C)NC(=O)N(c2ccc([N+](=O)[O-])c(C(F)(F)F)c2)C1=O [nilutamide] (first compound 0.1 µM, partner dose 1 µM)",111%
2,"Cn1cnc2c(F)c(Nc3ccc(Br)cc3Cl)c(C(=O)NOCCO)cc21 [selumetinib] + O=C(CCCCCCC(=O)Nc1ccccc1)NO [vorinostat] (first compound 0.015 µM, partner dose 0.08 µM)",101%
3,"COc1ccc(C2=N[C@@H](c3ccc(Cl)cc3)[C@@H](c3ccc(Cl)cc3)N2C(=O)N2CCNC(=O)C2)c(OC(C)C)c1 [Nutlin-3] + Cc1ccc(NC(=O)c2cccc(N(C)C)c2)cc1NC(=O)c1ccc(O)cc1 [ZM336372] (first compound 0.1 µM, partner dose 2 µM)",39.6%
4,"CS(=O)(=O)c1ccc(C(=O)Nc2ccc(Cl)c(-c3ccccn3)c2)c(Cl)c1 [vismodegib] + O=C(O)c1ccc(-c2c[nH]c3ncc(-c4ccccc4)cc23)cc1C1CCCC1 [GSK650394] (first compound 1 µM, partner dose 0.16 µM)",69.3%
5,"C[C@]1(O)C[C@@H](c2nc(-c3ccc4ccc(-c5ccccc5)nc4c3)c3c(N)nccn32)C1 + CC(C)(C)c1cnc(CSc2cnc(NC(=O)C3CCNCC3)s2)o1 [SNS-032] (first compound 0.4 µM, partner dose 0.01 µM)",79.3%
6,"CC(=O)O[C@@]12CO[C@@H]1C[C@H](O)[C@@]1(C)C(=O)[C@H](O)C3=C(C)[C@@H](OC(=O)[C@H](O)[C@@H](NC(=O)OC(C)(C)C)c4ccccc4)C[C@@](O)([C@@H](OC(=O)c4ccccc4)[C@H]21)C3(C)C [Docetaxel] + COc1cc(Nc2ncc(F)c(Nc3ccc4c(n3)NC(=O)C(C)(C)O4)n2)cc(OC)c1OC [Tamatinib] (first compound 0.0001 µM, partner dose 0.4 µM)",524%
7,"CS(=O)(=O)c1ccc(C(=O)Nc2ccc(Cl)c(-c3ccccn3)c2)c(Cl)c1 [vismodegib] + CO[C@@H]1[C@H](N(C)C(=O)c2ccccc2)C[C@H]2O[C@]1(C)n1c3ccccc3c3c4c(c5c6ccccc6n2c5c31)C(=O)NC4 [Midostaurin] (first compound 1 µM, partner dose 0.08 µM)",85.5%
8,"CC(=O)O[C@@]12CO[C@@H]1C[C@H](O)[C@@]1(C)C(=O)[C@H](O)C3=C(C)[C@@H](OC(=O)[C@H](O)[C@@H](NC(=O)OC(C)(C)C)c4ccccc4)C[C@@](O)([C@@H](OC(=O)c4ccccc4)[C@H]21)C3(C)C [Docetaxel] + C[C@@H]1CCN(C(=O)CC#N)C[C@@H]1N(C)c1ncnc2[nH]ccc12 [CP690550] (first compound 0.0001 µM, partner dose 1 µM)",1080%
9,"Cn1cnc2c(F)c(Nc3ccc(Br)cc3Cl)c(C(=O)NOCCO)cc21 [selumetinib] + O=C(Nc1cccc(Cl)c1)Nc1ncc(CCNc2ncnc3ccsc23)s1 [SNS314] (first compound 0.015 µM, partner dose 0.0008 µM)",95.4%
10,"NC(=O)c1ccc(N(C(N)=O)c2c(F)cccc2F)nc1-c1ccc(F)cc1F + OCCn1cc(-c2cnc3nnn(Cc4ccc5ncccc5c4)c3n2)cn1 [PF04217903] (first compound 0.4 µM, partner dose 1 µM)",77.2%
11,"CC1(C)CCC(c2ccc(Cl)cc2)=C(CN2CCN(c3ccc(C(=O)NS(=O)(=O)c4ccc(N[C@H](CCN5CCOCC5)CSc5ccccc5)c(S(=O)(=O)C(F)(F)F)c4)cc3)CC2)C1 + CO[C@@H]1[C@H](N(C)C(=O)c2ccccc2)C[C@H]2O[C@]1(C)n1c3ccccc3c3c4c(c5c6ccccc6n2c5c31)C(=O)NC4 [Midostaurin] (first compound 0.4 µM, partner dose 0.08 µM)",217%

# Exported bar-delimited: entries from further up
row | Compound | cleaved PARP positive nuclei fraction
4 | CS(=O)(=O)c1ccc(C(=O)Nc2ccc(Cl)c(-c3ccccn3)c2)c(Cl)c1 [vismodegib] + O=C(O)c1ccc(-c2c[nH]c3ncc(-c4ccccc4)cc23)cc1C1CCCC1 [GSK650394] (first compound 1 µM, partner dose 0.16 µM) | 69.3%
5 | C[C@]1(O)C[C@@H](c2nc(-c3ccc4ccc(-c5ccccc5)nc4c3)c3c(N)nccn32)C1 + CC(C)(C)c1cnc(CSc2cnc(NC(=O)C3CCNCC3)s2)o1 [SNS-032] (first compound 0.4 µM, partner dose 0.01 µM) | 79.3%
7 | CS(=O)(=O)c1ccc(C(=O)Nc2ccc(Cl)c(-c3ccccn3)c2)c(Cl)c1 [vismodegib] + CO[C@@H]1[C@H](N(C)C(=O)c2ccccc2)C[C@H]2O[C@]1(C)n1c3ccccc3c3c4c(c5c6ccccc6n2c5c31)C(=O)NC4 [Midostaurin] (first compound 1 µM, partner dose 0.08 µM) | 85.5%
8 | CC(=O)O[C@@]12CO[C@@H]1C[C@H](O)[C@@]1(C)C(=O)[C@H](O)C3=C(C)[C@@H](OC(=O)[C@H](O)[C@@H](NC(=O)OC(C)(C)C)c4ccccc4)C[C@@](O)([C@@H](OC(=O)c4ccccc4)[C@H]21)C3(C)C [Docetaxel] + C[C@@H]1CCN(C(=O)CC#N)C[C@@H]1N(C)c1ncnc2[nH]ccc12 [CP690550] (first compound 0.0001 µM, partner dose 1 µM) | 1080%
11 | CC1(C)CCC(c2ccc(Cl)cc2)=C(CN2CCN(c3ccc(C(=O)NS(=O)(=O)c4ccc(N[C@H](CCN5CCOCC5)CSc5ccccc5)c(S(=O)(=O)C(F)(F)F)c4)cc3)CC2)C1 + CO[C@@H]1[C@H](N(C)C(=O)c2ccccc2)C[C@H]2O[C@]1(C)n1c3ccccc3c3c4c(c5c6ccccc6n2c5c31)C(=O)NC4 [Midostaurin] (first compound 0.4 µM, partner dose 0.08 µM) | 217%

# Test system: IPC-298
# Assay: as above
# Details: library dose: low library concentration; 72 h
row,Compound,cleaved PARP positive nuclei fraction
1,"COc1ccc(C2=N[C@@H](c3ccc(Cl)cc3)[C@@H](c3ccc(Cl)cc3)N2C(=O)N2CCNC(=O)C2)c(OC(C)C)c1 [Nutlin-3] + C=CCn1c(=O)c2cnc(Nc3ccc(N4CCN(C)CC4)cc3)nc2n1-c1cccc(C(C)(C)O)n1 [MK1775] (first compound 0.1 µM, partner dose 0.02 µM)",138%
2,"Cn1sc(=O)n(Cc2ccccc2)c1=O + CO[C@@H]1[C@H](N(C)C(=O)c2ccccc2)C[C@H]2O[C@]1(C)n1c3ccccc3c3c4c(c5c6ccccc6n2c5c31)C(=O)NC4 [Midostaurin] (first compound 0.4 µM, partner dose 0.08 µM)",71.6%
3,"Cn1cnc2c(F)c(Nc3ccc(Br)cc3Cl)c(C(=O)NOCCO)cc21 [selumetinib] + Cc1cc(N2CCOCC2)cc2[nH]c(-c3c(NC[C@@H](O)c4cccc(Cl)c4)cc[nH]c3=O)nc12 [BMS536924] (first compound 0.015 µM, partner dose 0.2 µM)",138%
4,"CC(=O)O[C@@]12CO[C@@H]1C[C@H](O)[C@@]1(C)C(=O)[C@H](O)C3=C(C)[C@@H](OC(=O)[C@H](O)[C@@H](NC(=O)OC(C)(C)C)c4ccccc4)C[C@@](O)([C@@H](OC(=O)c4ccccc4)[C@H]21)C3(C)C [Docetaxel] + O=C(CCCCCCC(=O)Nc1ccccc1)NO [vorinostat] (first compound 0.0001 µM, partner dose 0.08 µM)",93.9%
5,"C[C@]1(O)C[C@@H](c2nc(-c3ccc4ccc(-c5ccccc5)nc4c3)c3c(N)nccn32)C1 + CO[C@@H]1[C@H](N(C)C(=O)c2ccccc2)C[C@H]2O[C@]1(C)n1c3ccccc3c3c4c(c5c6ccccc6n2c5c31)C(=O)NC4 [Midostaurin] (first compound 0.4 µM, partner dose 0.08 µM)",99.3%
6,"CS(=O)(=O)c1ccc(C(=O)Nc2ccc(Cl)c(-c3ccccn3)c2)c(Cl)c1 [vismodegib] + NC(=O)Nc1cc(-c2cccc(F)c2)sc1C(=O)N[C@H]1CCCNC1 [AZD7762] (first compound 1 µM, partner dose 0.02 µM)",41.7%
7,"CC(=O)O[C@@]12CO[C@@H]1C[C@H](O)[C@@]1(C)C(=O)[C@H](O)C3=C(C)[C@@H](OC(=O)[C@H](O)[C@@H](NC(=O)OC(C)(C)C)c4ccccc4)C[C@@](O)([C@@H](OC(=O)c4ccccc4)[C@H]21)C3(C)C [Docetaxel] + CO[C@@H]1[C@H](N(C)C(=O)c2ccccc2)C[C@H]2O[C@]1(C)n1c3ccccc3c3c4c(c5c6ccccc6n2c5c31)C(=O)NC4 [Midostaurin] (first compound 0.0001 µM, partner dose 0.08 µM)",197%
8,"CC(=O)O[C@@]12CO[C@@H]1C[C@H](O)[C@@]1(C)C(=O)[C@H](O)C3=C(C)[C@@H](OC(=O)[C@H](O)[C@@H](NC(=O)OC(C)(C)C)c4ccccc4)C[C@@](O)([C@@H](OC(=O)c4ccccc4)[C@H]21)C3(C)C [Docetaxel] + Cc1ccc(NC(=O)c2cccc(N(C)C)c2)cc1NC(=O)c1ccc(O)cc1 [ZM336372] (first compound 0.0001 µM, partner dose 2 µM)",72.1%
9,"Cn1sc(=O)n(Cc2ccccc2)c1=O + NC(=O)Nc1cc(-c2cccc(F)c2)sc1C(=O)N[C@H]1CCCNC1 [AZD7762] (first compound 0.4 µM, partner dose 0.02 µM)",254%
10,"C[C@@H](N)c1ccc(C(=O)Nc2ccnc3[nH]ccc23)cc1 + O=C(O)c1ccc(-c2c[nH]c3ncc(-c4ccccc4)cc23)cc1C1CCCC1 [GSK650394] (first compound 0.4 µM, partner dose 0.16 µM)",89%
11,"NC1(c2ccc(-c3nc4ccn5c(=O)[nH]nc5c4cc3-c3ccccc3)cc2)CCC1 + NC(=O)Nc1cc(-c2cccc(F)c2)sc1C(=O)N[C@H]1CCCNC1 [AZD7762] (first compound 0.4 µM, partner dose 0.02 µM)",48.2%
12,"COc1ccc(C2=N[C@@H](c3ccc(Cl)cc3)[C@@H](c3ccc(Cl)cc3)N2C(=O)N2CCNC(=O)C2)c(OC(C)C)c1 [Nutlin-3] + COc1cc2c(Oc3ccc4[nH]c(C)cc4c3F)ncnc2cc1OCCCN1CCCC1 [cediranib] (first compound 0.1 µM, partner dose 0.4 µM)",44.6%
13,"Cn1cnc2c(F)c(Nc3ccc(Br)cc3Cl)c(C(=O)NOCCO)cc21 [selumetinib] + CC1(C)NC(=O)N(c2ccc([N+](=O)[O-])c(C(F)(F)F)c2)C1=O [nilutamide] (first compound 0.015 µM, partner dose 1 µM)",40.8%
14,"NC(=O)c1ccc(N(C(N)=O)c2c(F)cccc2F)nc1-c1ccc(F)cc1F + Cc1ccc(NC(=O)c2cccc(N(C)C)c2)cc1NC(=O)c1ccc(O)cc1 [ZM336372] (first compound 0.4 µM, partner dose 2 µM)",125%
15,"CC1(C)CCC(c2ccc(Cl)cc2)=C(CN2CCN(c3ccc(C(=O)NS(=O)(=O)c4ccc(N[C@H](CCN5CCOCC5)CSc5ccccc5)c(S(=O)(=O)C(F)(F)F)c4)cc3)CC2)C1 + CN(NC(=O)CC(=O)NN(C)C(=S)c1ccccc1)C(=S)c1ccccc1 [STA4783] (first compound 0.4 µM, partner dose 0.006 µM)",306%
